Data published in the supplement of paper PMC10849652.
This is one part of the list.

The chains behind the UniProt entries cited, without tags or fusion partners. Where a name states a change or a piece, a line headed by the entry shows the natural chain unless it says otherwise.
UniProt Q8WXF1: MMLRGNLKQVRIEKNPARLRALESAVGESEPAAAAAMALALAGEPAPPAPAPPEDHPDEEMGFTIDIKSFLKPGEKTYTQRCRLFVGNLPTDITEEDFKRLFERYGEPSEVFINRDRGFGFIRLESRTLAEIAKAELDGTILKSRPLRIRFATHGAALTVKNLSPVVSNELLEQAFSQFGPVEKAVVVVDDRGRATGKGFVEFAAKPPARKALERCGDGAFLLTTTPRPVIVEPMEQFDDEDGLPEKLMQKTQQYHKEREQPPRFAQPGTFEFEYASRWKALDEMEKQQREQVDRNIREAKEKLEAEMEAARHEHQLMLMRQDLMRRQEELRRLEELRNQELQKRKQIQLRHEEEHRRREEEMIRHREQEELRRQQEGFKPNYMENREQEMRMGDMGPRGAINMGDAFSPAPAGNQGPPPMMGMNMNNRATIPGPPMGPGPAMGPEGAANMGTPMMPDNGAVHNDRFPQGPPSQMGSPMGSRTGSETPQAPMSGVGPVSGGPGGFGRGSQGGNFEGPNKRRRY
UniProt Q86Y79: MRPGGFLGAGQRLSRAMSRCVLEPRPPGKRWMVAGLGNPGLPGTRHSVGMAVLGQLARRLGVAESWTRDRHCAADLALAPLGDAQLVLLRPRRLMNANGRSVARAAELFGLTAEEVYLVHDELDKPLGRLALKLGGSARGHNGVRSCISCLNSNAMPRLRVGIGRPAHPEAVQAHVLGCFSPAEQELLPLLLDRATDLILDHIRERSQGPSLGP
UniProt P11908: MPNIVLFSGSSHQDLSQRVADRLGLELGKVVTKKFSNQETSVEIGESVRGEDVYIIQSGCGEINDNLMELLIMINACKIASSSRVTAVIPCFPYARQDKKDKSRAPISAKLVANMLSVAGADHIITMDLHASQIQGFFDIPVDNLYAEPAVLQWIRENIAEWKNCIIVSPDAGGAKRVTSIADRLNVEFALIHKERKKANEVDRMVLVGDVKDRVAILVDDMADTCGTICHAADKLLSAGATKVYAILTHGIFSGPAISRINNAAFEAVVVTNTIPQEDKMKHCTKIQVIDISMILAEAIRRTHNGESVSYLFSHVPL
UniProt Q9BVG9: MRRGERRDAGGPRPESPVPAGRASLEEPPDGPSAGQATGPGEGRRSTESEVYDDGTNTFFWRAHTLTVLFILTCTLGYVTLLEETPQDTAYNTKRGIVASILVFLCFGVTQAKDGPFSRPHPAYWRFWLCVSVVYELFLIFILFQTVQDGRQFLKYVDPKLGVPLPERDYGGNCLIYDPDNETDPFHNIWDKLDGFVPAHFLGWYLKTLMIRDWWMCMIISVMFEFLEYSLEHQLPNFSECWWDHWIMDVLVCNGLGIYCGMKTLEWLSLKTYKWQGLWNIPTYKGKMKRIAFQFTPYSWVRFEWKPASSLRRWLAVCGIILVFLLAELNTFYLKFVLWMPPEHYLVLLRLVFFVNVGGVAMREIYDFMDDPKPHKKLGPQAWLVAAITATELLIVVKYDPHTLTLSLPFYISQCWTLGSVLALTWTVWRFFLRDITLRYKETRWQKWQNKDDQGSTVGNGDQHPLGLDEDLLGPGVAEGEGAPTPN
UniProt P28074: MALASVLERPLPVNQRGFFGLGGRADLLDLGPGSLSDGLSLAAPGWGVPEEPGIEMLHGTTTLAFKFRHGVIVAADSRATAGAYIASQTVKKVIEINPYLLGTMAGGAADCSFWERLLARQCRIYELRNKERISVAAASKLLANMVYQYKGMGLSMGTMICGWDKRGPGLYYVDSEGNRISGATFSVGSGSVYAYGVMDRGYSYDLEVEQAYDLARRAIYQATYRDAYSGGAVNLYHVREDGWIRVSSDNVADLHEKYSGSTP
UniProt P15151: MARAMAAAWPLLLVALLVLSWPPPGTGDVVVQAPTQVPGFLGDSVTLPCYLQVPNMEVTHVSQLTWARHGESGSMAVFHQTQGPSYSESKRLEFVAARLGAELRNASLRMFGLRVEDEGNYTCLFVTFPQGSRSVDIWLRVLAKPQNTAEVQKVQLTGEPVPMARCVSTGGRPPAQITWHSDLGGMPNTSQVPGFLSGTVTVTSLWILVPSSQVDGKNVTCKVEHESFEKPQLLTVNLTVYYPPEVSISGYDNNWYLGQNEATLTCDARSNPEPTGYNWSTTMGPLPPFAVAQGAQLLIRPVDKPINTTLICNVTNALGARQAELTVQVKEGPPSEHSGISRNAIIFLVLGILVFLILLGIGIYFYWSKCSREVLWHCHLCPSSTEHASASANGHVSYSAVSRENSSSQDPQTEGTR
UniProt Q05397, whole entry, looked up: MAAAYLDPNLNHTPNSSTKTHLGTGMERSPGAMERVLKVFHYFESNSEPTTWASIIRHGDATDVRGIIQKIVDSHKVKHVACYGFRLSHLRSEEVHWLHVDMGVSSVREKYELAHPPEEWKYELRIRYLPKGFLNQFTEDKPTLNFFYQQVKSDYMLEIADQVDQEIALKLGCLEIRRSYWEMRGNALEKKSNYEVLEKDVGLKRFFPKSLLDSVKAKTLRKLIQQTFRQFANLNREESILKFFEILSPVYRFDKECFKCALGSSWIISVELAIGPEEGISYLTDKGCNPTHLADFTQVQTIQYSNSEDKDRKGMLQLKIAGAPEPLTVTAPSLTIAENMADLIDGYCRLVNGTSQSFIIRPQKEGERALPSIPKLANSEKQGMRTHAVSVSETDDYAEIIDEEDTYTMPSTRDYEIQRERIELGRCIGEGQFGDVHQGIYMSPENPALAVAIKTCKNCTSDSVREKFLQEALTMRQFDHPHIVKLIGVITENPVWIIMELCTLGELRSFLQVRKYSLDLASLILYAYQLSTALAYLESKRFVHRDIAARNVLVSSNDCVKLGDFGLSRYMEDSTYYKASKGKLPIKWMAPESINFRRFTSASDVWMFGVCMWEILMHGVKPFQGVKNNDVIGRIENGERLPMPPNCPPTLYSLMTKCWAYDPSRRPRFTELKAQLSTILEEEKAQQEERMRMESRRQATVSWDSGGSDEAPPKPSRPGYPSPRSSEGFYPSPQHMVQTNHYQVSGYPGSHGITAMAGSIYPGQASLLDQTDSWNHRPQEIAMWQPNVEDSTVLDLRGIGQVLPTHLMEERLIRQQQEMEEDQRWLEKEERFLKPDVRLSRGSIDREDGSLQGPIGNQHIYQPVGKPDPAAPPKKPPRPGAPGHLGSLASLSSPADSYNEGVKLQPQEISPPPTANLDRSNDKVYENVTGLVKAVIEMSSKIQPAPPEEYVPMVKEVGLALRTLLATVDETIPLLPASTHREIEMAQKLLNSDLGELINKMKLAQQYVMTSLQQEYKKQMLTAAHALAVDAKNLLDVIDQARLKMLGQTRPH
UniProt Q03393: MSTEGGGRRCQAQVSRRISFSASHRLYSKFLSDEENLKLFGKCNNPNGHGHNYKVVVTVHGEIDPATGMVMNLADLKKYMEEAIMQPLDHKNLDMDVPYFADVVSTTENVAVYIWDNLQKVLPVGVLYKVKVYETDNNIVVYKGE
UniProt P23219, whole entry, looked up: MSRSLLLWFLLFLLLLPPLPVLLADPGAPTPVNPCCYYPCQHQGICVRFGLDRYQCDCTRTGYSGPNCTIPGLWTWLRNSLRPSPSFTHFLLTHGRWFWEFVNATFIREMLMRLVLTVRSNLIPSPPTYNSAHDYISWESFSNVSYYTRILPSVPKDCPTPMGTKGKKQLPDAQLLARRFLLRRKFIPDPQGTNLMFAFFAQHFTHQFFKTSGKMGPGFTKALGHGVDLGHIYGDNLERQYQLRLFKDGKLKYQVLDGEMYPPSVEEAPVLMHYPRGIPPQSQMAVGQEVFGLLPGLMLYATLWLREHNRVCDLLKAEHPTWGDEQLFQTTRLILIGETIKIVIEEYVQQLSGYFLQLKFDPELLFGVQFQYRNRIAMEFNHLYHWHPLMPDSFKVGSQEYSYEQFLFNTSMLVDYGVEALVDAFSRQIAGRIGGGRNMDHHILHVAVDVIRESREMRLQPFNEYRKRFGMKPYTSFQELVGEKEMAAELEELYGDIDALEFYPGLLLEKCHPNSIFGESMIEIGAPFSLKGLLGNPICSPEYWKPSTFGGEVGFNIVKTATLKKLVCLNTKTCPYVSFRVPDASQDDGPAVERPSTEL
UniProt Q13308: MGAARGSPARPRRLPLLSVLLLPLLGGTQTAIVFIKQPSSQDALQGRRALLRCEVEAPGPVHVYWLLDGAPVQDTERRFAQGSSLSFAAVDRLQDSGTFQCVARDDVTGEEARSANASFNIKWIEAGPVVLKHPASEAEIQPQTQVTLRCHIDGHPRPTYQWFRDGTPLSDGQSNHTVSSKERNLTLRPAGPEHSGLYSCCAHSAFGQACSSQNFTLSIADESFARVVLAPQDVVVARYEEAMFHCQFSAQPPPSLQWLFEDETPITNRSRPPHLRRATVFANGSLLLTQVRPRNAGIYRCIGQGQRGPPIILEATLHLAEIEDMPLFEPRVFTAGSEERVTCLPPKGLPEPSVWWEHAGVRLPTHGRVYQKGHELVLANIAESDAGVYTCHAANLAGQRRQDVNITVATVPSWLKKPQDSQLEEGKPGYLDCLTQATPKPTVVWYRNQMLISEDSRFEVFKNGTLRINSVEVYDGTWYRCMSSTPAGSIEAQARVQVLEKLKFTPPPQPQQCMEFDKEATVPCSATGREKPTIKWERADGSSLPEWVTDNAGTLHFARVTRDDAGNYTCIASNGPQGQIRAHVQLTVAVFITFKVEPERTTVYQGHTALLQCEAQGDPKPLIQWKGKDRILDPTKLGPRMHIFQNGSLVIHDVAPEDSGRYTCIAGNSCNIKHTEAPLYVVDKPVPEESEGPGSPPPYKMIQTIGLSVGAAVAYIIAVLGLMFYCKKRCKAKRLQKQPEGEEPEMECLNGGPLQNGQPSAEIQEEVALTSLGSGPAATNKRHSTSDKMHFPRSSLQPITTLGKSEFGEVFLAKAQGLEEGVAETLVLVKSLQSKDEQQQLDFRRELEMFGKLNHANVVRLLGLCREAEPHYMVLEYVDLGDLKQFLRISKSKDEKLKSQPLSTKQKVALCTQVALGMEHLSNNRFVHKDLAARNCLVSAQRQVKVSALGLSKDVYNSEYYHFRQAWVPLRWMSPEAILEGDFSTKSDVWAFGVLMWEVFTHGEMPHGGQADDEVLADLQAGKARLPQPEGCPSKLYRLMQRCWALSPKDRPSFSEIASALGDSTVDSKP
UniProt P25788: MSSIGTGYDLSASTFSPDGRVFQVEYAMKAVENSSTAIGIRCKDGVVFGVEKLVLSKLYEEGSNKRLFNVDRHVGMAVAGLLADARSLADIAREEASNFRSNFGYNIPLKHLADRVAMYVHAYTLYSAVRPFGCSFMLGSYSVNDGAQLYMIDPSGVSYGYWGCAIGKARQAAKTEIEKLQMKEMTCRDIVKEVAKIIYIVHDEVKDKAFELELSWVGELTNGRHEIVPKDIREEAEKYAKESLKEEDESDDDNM
UniProt Q9UL46, whole entry, looked up: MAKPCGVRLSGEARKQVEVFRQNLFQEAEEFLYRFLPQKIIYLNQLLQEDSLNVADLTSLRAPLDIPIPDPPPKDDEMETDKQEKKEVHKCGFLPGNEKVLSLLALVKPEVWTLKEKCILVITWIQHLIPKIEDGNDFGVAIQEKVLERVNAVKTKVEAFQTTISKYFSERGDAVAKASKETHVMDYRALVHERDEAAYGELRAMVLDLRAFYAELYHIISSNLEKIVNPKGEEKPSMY
UniProt P48556: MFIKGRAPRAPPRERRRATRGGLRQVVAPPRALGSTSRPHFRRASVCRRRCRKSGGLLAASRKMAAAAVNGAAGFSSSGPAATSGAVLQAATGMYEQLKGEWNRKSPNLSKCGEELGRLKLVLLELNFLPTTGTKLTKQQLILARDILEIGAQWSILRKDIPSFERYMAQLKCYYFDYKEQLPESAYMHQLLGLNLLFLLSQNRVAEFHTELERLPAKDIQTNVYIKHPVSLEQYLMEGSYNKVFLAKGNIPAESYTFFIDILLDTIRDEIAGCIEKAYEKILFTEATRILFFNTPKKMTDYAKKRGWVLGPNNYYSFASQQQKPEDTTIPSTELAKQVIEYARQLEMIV
UniProt P62195, whole entry, looked up: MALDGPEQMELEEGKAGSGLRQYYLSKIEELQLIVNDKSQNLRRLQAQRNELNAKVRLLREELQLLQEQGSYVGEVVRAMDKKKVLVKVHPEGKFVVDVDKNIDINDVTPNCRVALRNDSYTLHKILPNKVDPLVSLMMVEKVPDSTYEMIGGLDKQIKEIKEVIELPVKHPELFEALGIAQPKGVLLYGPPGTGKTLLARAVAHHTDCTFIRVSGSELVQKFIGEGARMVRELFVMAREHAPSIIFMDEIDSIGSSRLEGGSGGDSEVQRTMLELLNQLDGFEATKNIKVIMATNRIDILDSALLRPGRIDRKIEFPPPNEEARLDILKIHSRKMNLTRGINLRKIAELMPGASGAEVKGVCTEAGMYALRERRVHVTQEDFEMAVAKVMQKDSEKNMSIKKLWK
UniProt P78330: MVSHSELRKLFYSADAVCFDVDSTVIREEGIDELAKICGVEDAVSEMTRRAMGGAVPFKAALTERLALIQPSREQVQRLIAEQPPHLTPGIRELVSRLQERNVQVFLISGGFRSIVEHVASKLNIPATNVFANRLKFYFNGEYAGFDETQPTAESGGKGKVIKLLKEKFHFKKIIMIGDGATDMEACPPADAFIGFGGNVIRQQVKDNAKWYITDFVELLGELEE

Legend:
Assay in all cases: log2 fold change, soluble protein after heating vs DMSO (PISA); higher = thermal stabilisation; K562 lysate, 10 uM; active = over 0.2 and 3.5 SD of the protein, either way, in both replicates (recomputed)
[1] = compound: NCC(=O)Nc1ccc(-n2nc(C(F)(F)F)cc2-c2ccc3c(ccc4ccccc43)c2)cc1
Method in brief: (§1)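 Log-two fold change in thermal stability relative to solvent controls is reported from duplicates. For each sample, crude K562 extract from dounce-homogenised pellets in PBS pH 7.4 with 1 mM MgCl2, at 1 mg/mL protein, was treated with 10 μM compound for 30 min. Aliquots heated for 3 min across 48°C-58°C were pooled, brought to 0.5% NP-40 at 4°C and cleared at 21,000xg for 90 min. The supernatant was quantified by TMTpro 16plex LC-MS/MS with channel sums equalised.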

[2] = compound: O=C(CCCCCCC(=O)Nc1ccccc1)NO [vorinostat]
Method in brief: as §1

[3] = compound: O=C(O)c1ccc2c(c1)nc(Nc1cccc(Cl)c1)c1ccncc12 [silmitasertib]
Method in brief: as §1

[4] = compound: O=C1NC(=O)C(c2cnc3ccccn23)=C1c1cn2c3c(cc(F)cc13)CN(C(=O)N1CCCCC1)CC2
Method in brief: as §1

[5] = compound: c1cn2cc(-c3ccc4cn[nH]c4c3)nc(Nc3ccc(N4CCOCC4)cc3)c2n1 [entospletinib]
Method in brief: as §1

Measured: log2 fold change

PSPC1 (UniProt Q8WXF1)
inactive: [1] -0.013 | [2] -0.074 | [3] -0.003 | [4] -0.01 | [5] 0.01

PTRH1 (UniProt Q86Y79)
inactive: [1] 0.148 | [2] -0.342 | [3] 0.112 | [4] -0.09 | [5] -0.048

PRPS2 isoform 2 (UniProt P11908)
inactive: [1] 0.008 | [2] -0.11 | [3] 0.012 | [4] -0.025 | [5] -0.003

PTPRS isoform 3 (UniProt Q13332)
inactive: [1] -0.002 | [2] 0.149 | [3] -0.008 | [4] 0.005 | [5] -0.027

PTPN6 isoform 4 (UniProt P29350)
inactive: [1] -0.001 | [2] -0.039 | [3] 0.078 | [4] 0.006 | [5] 0.107

PTDSS2 (UniProt Q9BVG9)
inactive: [1] -0.033 | [2] 0.101 | [3] 0.015 | [4] -0.037 | [5] 0.002

PSMB5 (UniProt P28074)
inactive: [1] -0.009 | [2] 0.14 | [3] -0.031 | [4] 0.008 | [5] 0.028

PVR (UniProt P15151)
inactive: [1] 0.108 | [2] 0.128 | [3] -0.053 | [4] -0.041 | [5] 0.003

PUM2 (UniProt Q8TB72)
inactive: [1] 0.292 | [2] -0.019 | [3] -0.131 | [4] 0.094 | [5] -0.01

PTMS (UniProt P20962)
inactive: [1] 0.012 | [2] 0.107 | [3] -0.049 | [4] -0.027 | [5] -0.031

PTK2 (UniProt Q05397)
inactive: [1] -0.017 | [2] -0.137 | [3] 0 | [4] -0.056 | [5] 0.175

PTS (UniProt Q03393)
inactive: [1] 0.053 | [2] 0.006 | [3] 0.009 | [4] -0.151 | [5] 0.032

PRRC2A (UniProt P48634)
inactive: [1] 0.012 | [2] 0.108 | [3] -0.026 | [4] -0.018 | [5] -0.003

PTGS1 isoform 6 (UniProt P23219)
inactive: [1] -0.013 | [2] 0.05 | [3] -0.033 | [4] 0.003 | [5] -0.017

PTK7 isoform 6 (UniProt Q13308)
inactive: [1] 0.125 | [2] 0.107 | [3] -0.032 | [4] -0.014 | [5] -0.016

PSMA3 (UniProt P25788)
inactive: [1] -0.039 | [2] 0.091 | [3] 0 | [4] -0.028 | [5] 0.023

PSME2 (UniProt Q9UL46)
inactive: [1] 0 | [2] 0.052 | [3] -0.004 | [4] 0.004 | [5] -0.019

PSMD8 (UniProt P48556)
inactive: [1] -0.025 | [2] -0.028 | [3] 0.052 | [4] -0.01 | [5] -0.021

PSMD3 (UniProt O43242)
inactive: [1] -0.012 | [2] -0.002 | [3] -0.003 | [4] -0.012 | [5] 0

Reprinted at random: 2 entries already listed.
PTPRS isoform 3 (UniProt Q13332)
inactive: [1] -0.002 | [2] 0.149 | [3] -0.008 | [4] 0.005 | [5] -0.027

PRRC2A (UniProt P48634)
inactive: [1] 0.012 | [2] 0.108 | [3] -0.026 | [4] -0.018 | [5] -0.003

Next records follow:

PSEN1 (UniProt P49768)
inactive: [1] -0.048 | [2] 0.004 | [3] -0.036 | [4] -0.064 | [5] -0.019

PSMD1 (UniProt Q99460)
inactive: [1] 0 | [2] 0.037 | [3] 0.017 | [4] -0.006 | [5] -0.005

PSMC5 (UniProt P62195)
inactive: [1] -0.001 | [2] -0.001 | [3] 0.034 | [4] 0.021 | [5] 0.003

PSPH (UniProt P78330)
inactive: [1] 0.019 | [2] 0.131 | [3] -0.001 | [4] 0.027 | [5] 0.029

PUSL1 (UniProt Q8N0Z8)
inactive: [1] 0.064 | [2] -0.003 | [3] -0.004 | [4] 0.063 | [5] 0.065
